Laboratory results from patent US8815309B2, “Methods of treating a subject with benign prostate hyperplasia” (Zafgen, Inc., priority 2010, dated 2014).
Marks after values point to notes of the source that are not given here.

Assay: Final body weight in male rats after once daily intravenous infusion for four weeks
Format: in vivo, rat
Settings: 15-min iv infusion once daily for four weeks, N=10
Description: Male rats were divided into a control group and three test groups with 20 animals per group. Animals were administered the MetAP-2 inhibitor Compound I, represented by the formula: Compound I was prepared in a 5% mannitol solution was administered once daily for four weeks by a fifteen-minute intravenous infusion according to Table I. [table] Ten animals from each group were euthanized at the end of the four weeks. The remaining ten animals were allowed to recover for 10 additional weeks and were then euthanized.

Compound: CO[C@@H]1[C@H](OC(=O)/C=C/c2ccc(OCCN(C)C)cc2)CCC2(CO2)[C@H]1[C@@]1(C)O[C@@H]1CC=C(C)C (stereo in doubt) [Compound I]
- Final Body Weight (g) Mean (0.04 mg/kg/day): 437** g
- Final Body Weight (g) Mean (0.2 mg/kg/day): 411** g
- Final Body Weight (g) Mean (1.0 mg/kg/day): 393** g
